From the supplement of paper PMC10663445
Counter-ions that a name gives are not always drawn. This is one part of the list. Single values are uncertain, as repeats are few or missing.

system: hsa-miR-132-3p; assay: miR-132-3p level in NGN2-iNs after compound treatment (TMM-normalised, ComBat batch-corrected) (batch-corrected normalised expression (arbitrary units)); higher = higher miR-132-3p expression; settings: 10 µM; 24 h; human iPSC-derived NGN2 neurons (BR43)

Row | Compound | miR-132-3p level in NGN2-iNs
1 | CC1=C(CC(=O)O)c2cc(F)ccc2/C1=C\c1ccc([S+](C)[O-])cc1 (centres undefined) [Sulindac] | -0.221
2 | CC(=O)N1CCN(CCOc2ccc(C3CCN(C4=Nn5c(nnc5C(F)(F)F)CC4)CC3)cc2)CC1 | 1.25
3 | C=CC(=O)N1CCC[C@@H](n2nc(-c3ccc(Oc4ccccc4)cc3)c3c(N)ncnc32)C1 | -0.98
4 | CCC[C@H](NC(=O)[C@@H]1[C@H]2CCC[C@H]2CN1C(=O)[C@@H](NC(=O)[C@@H](NC(=O)c1cnccn1)C1CCCCC1)C(C)(C)C)C(=O)C(=O)NC1CC1 [Telaprevir (VX-950)] | -2.76
5 | Cc1noc(NS(=O)(=O)c2ccc(N)cc2)c1C [Sulfisoxazole] | 0.0329
6 | CCc1cccc2c3c([nH]c12)C(CC)(CC(=O)O)OCC3 (centres undefined) [Etodolac] | -0.294
7 | OCC(O)C(O)CO (centres undefined) [Erythritol] | -0.542
8 | C[C@@H]1CN(CC(=O)Nc2ccc3c(c2)Cc2cccc(-c4cc(=O)cc(N5CCOCC5)o4)c2S3)C[C@H](C)O1 | -1.04
9 | OCCOCCN1CCN(C(c2ccccc2)c2ccc(Cl)cc2)CC1 (centres undefined) [Hydroxyzine 2HCl] | 0.56
10 | O=C(NS(=O)(=O)c1ccc(Br)s1)c1ccc(Cl)cc1Cl [Tasisulam] | 0.309
11 | [I-].[K+] [Potassium Iodide] | 0.73
12 | Cc1ccccc1N1C(=O)c2cc(S(N)(=O)=O)c(Cl)cc2NC1C (centres undefined) [Metolazone] | -0.0376
13 | O=C(Nc1ccc(-c2ccnc(Nc3ccc(N4CCOCC4)cc3)n2)cc1)C1CCCN1 (centres undefined) | -0.588
14 | COc1ccc2[nH]c([S+]([O-])Cc3ncc(C)c(OC)c3C)nc2c1 (centres undefined) [Omeprazole] | 0.783
15 | NC(=S)N/N=C/c1ncccc1N [Triapine] | -0.807
16 | Nc1cccc2c1CN(C1CCC(=O)NC1=O)C2=O (centres undefined) [Lenalidomide (CC-5013)] | 0.231
17 | C[C@]12CC[C@@H]3c4ccc(O)cc4CC[C@H]3[C@@H]1CCC2=O [Estrone] | 0.0752
18 | Nc1ncnc2c1c(-c1cccc(OCc3ccccc3)c1)cn2C1CC(CN2CCC2)C1 (centres undefined) | 0.027
19 | COc1cc(C(=O)NC2CCCNC2)cc(OC)c1OC (centres undefined) [Troxipide] | 1.23
20 | CCCCCCCCc1ccc(CCC(N)(CO)CO)cc1 [Fingolimod (FTY720) HCl] | 0.87
21 | O=NN(CCCl)C(=O)NC1CCCCC1 [Lomustine] | 0.148
22 | COc1cc(CCC(C)=O)ccc1O [Vanillylacetone] | 0.0303
23 | COc1cnc(NS(=O)(=O)c2ccc(N)cc2)nc1 [Sulfameter] | 1.08
24 | CC(C)c1cc(C(=O)N2Cc3ccc(CN4CCN(C)CC4)cc3C2)c(O)cc1O | 0.188
25 | COc1ccc(-c2cc(=O)c3c(O)cc(O[C@@H]4O[C@H](CO[C@@H]5O[C@@H](C)[C@H](O)[C@@H](O)[C@H]5O)[C@@H](O)[C@H](O)[C@H]4O)cc3o2)cc1O [Diosmin] | -0.712

Row | Compound | miR-132-3p level in NGN2-iNs
26 | COc1cc(Nc2ncc(F)c(Nc3ccc4c(n3)N(COP(=O)(O)O)C(=O)C(C)(C)O4)n2)cc(OC)c1OC [Fostamatinib (R788)] | -0.925
27 | CCCCCCCN(CC)CCCC(O)c1ccc(NS(C)(=O)=O)cc1 (centres undefined) [Ibutilide Fumarate] | -0.319
28 | CC1(C)S[C@@H]2[C@H](NC(=O)[C@H](NC(=O)N3CCN(S(C)(=O)=O)C3=O)c3ccccc3)C(=O)N2[C@H]1C(=O)O [Mezlocillin Sodium] | -0.438
29 | Cn1cc(-c2ccc3nnc(C(F)(F)c4ccc5ncccc5c4)n3n2)cn1 | 0.797
30 | CCC(CC)CC1(C(=O)Nc2ccccc2SC(=O)C(C)C)CCCCC1 | 1.07
31 | CNC(=O)Nc1ccc(-c2nc(N3CC4CCC(C3)O4)c3cnn(C4CCC5(CC4)OCCO5)c3n2)cc1 | -1.11
32 | C[C@@H](CN1CC(=O)NC(=O)C1)N1CC(=O)NC(=O)C1 [Dexrazoxane HCl (ICRF-187, ADR-529)] | 0.549
33 | CC(=O)OCC(=O)[C@@]12N=C(C)O[C@@H]1C[C@H]1[C@@H]3CCC4=CC(=O)C=C[C@]4(C)[C@H]3[C@@H](O)C[C@@]12C [Deflazacort] | 2.36
34 | CCN1CC(CCN2CCOCC2)C(c2ccccc2)(c2ccccc2)C1=O (centres undefined) [Doxapram HCl] | -0.44
35 | CCC(=O)O[C@]1(C(=O)CCl)[C@@H](C)C[C@H]2[C@@H]3C[C@H](F)C4=CC(=O)C=C[C@]4(C)[C@@]3(F)[C@@H](O)C[C@@]21C [Halobetasol Propionate] | -0.901
36 | CC(=O)N[C@H]1[C@H]([C@H](O)[C@H](O)CO)OC(C(=O)O)=C[C@@H]1NC(=N)N [Zanamivir] | -0.152
37 | CCOC(=O)OC(C)OC1=C(C(=O)Nc2ccccn2)N(C)S(=O)(=O)c2ccccc21 (centres undefined) [Ampiroxicam] | -0.184
38 | O=C(Nc1c(Cl)cncc1Cl)c1ccc(OC(F)F)c(OCC2CC2)c1 [Roflumilast] | 3.08
39 | CCCS(=O)(=O)Nc1ccc(F)c(C(=O)c2c[nH]c3ncc(-c4ccc(Cl)cc4)cc23)c1F [Vemurafenib (PLX4032, RG7204)] | 1.36
40 | C[C@@H]1O[C@@H](O[C@H]2[C@H](Oc3cc(O)c(C(=O)CCc4ccc(O)cc4)c(O)c3)O[C@H](CO)[C@@H](O)[C@@H]2O)[C@H](O)[C@H](O)[C@H]1O [Naringin Dihydrochalcone] | 0.154
41 | O=S(=O)(O)CCS [Mesna] | -0.565
42 | Cc1nc(NC(=O)N2CCC[C@H]2C(N)=O)sc1-c1ccnc(C(C)(C)C(F)(F)F)c1 [Alpelisib (BYL719)] | -1.09
43 | CC(C)NCC(O)COc1cccc2ccccc12 (centres undefined) [Propranolol HCl] | 0.44
44 | COC(=O)[C@@H]1[C@H]2C[C@H]3c4[nH]c5ccccc5c4CCN3C[C@@H]2CC[C@@H]1O [Yohimbine HCl] | -0.796
45 | CN(C)CCSSCCNC(=O)C1CCN(C(=O)CSc2ccc(Cl)cc2)CC1 | 0.749
46 | CC(C)C[C@H](NC(=O)[C@H]1O[C@@H]1C(=O)O)C(=O)NCCCCN=C(N)N | 1.44
47 | CN(C)Cc1ccc(-c2nc3cccc4c3n2CCNC4=O)cc1 | -1.22
48 | O=C(/C=C\n1cnc(-c2cc(C(F)(F)F)cc(C(F)(F)F)c2)n1)NNc1cnccn1 [Selinexor (KPT-330)] | 0.74
49 | Cc1coc2c1C(=O)C(=O)c1c-2ccc2c(C)cccc12 [Tanshinone I] | 0.858
50 | CCC1=C(C)CN(C(=O)NCCc2ccc(S(=O)(=O)NC(=O)N[C@H]3CC[C@H](C)CC3)cc2)C1=O [Glimepiride] | 0.252

Row | Compound | miR-132-3p level in NGN2-iNs
51 | Cc1ccccc1-n1c(Cn2nc(-c3cccc(O)c3)c3c(N)ncnc32)nc2cccc(C)c2c1=O | -2.28
52 | C[C@@]12C[C@@]3(O)O[C@@H](O1)[C@]1(COC(=O)c4ccccc4)[C@H]3C[C@@]12O[C@@H]1O[C@H](CO)[C@@H](O)[C@H](O)[C@H]1O [Paeoniflorin] | -0.599
53 | O=C1CCc2cc(OCCCCc3nnnn3C3CCCCC3)ccc2N1 [Cilostazol] | -0.142
54 | CCS(=O)(=O)CCn1c([N+](=O)[O-])cnc1C [Tinidazole] | -1.04
55 | N#C[C@@H]1C[C@@H]2C[C@@H]2N1C(=O)[C@@H](N)C12CC3CC(CC(O)(C3)C1)C2 [Saxagliptin] | -2.81
56 | CCCCOc1cc(C(=O)NCCN(CC)CC)c2ccccc2n1 [Dibucaine HCl] | 0.171
57 | COc1ccc2cc1Oc1ccc(cc1)C[C@H]1c3cc(c(OC)cc3CCN1C)Oc1c(OC)c(OC)cc3c1[C@H](C2)N(C)CC3 [Tetrandrine] | 0.691
58 | Nc1ncnc2c1c(-c1cnc3[nH]ccc3c1)nn2C1CCCC1 | 0.924
59 | Cc1cc(OCCCS(C)(=O)=O)cc(C)c1-c1cccc(COc2ccc3c(c2)OCC3CC(=O)O)c1 (centres undefined) [Fasiglifam(TAK-875) Hemihydrate] | -0.0477
60 | CCCCOc1c(C(=O)c2c(F)cc(C)cc2F)c[nH]c2nncc1-2 | -0.681
61 | N=C(N)NC(=O)c1nc(Cl)c(N)nc1N [Amiloride HCl] | 0.591
62 | CN(C)C(=O)COC(=O)Cc1ccc(OC(=O)c2ccc(NC(=N)N)cc2)cc1 [Camostat Mesilate] | -1.3
63 | C[C@H]1COC2=C1C(=O)C(=O)c1c2ccc2c1CCCC2(C)C [Cryptotanshinone] | -0.982
64 | NC(=O)Cc1cccc(C(=O)c2ccccc2)c1N [Nepafenac] | 0.939
65 | CC[C@H]1OC(=O)[C@H](C)[C@@H](O[C@H]2C[C@@](C)(OC)[C@@H](O)[C@H](C)O2)[C@H](C)[C@@H](O[C@@H]2O[C@H](C)C[C@H](N(C)C)[C@H]2O)[C@](C)(OC)C[C@@H](C)C(=O)[C@H](C)[C@@H](O)[C@]1(C)O [Clarithromycin] | -0.322
66 | NS(=O)(=O)c1cc2c(cc1Cl)N=CNS2(=O)=O [Chlorothiazide] | -0.622
67 | O=c1c(O)c(-c2ccc(O)c(O)c2)oc2cc(O)ccc12 [Fisetin] | 0.134
68 | COc1cc2ncnc(Oc3cccc(NC(=O)Nc4cc(C(C)(C)C(F)(F)F)on4)c3)c2cc1OC [Agerafenib (RXDX-105)] | -0.512
69 | COc1ccc(-c2nc3cc(C4=NNC(=O)CC4C)ccc3[nH]2)cc1 (centres undefined) [Pimobendan] | 0.0478
70 | Cc1ccc(S(=O)(=O)n2c(N)nc3ccccc32)cc1 [Nodinitib-1] | 1.74
71 | NC(=O)c1ncn([C@@H]2O[C@H](CO)[C@@H](O)[C@H]2O)n1 [Ribavirin] | 1.78
72 | CCOC(=O)[C@H](CCc1ccccc1)N[C@@H](C)C(=O)N1[C@H](C(=O)O)C[C@@H]2CCC[C@@H]21 [Ramipril] | -0.222
73 | CCc1cncnc1N1CCN(Cc2nc3ccc(C(F)(F)F)cc3[nH]2)CC1 | -2.37
74 | CC1=C(C(=O)OC(C)C)C(c2cccc([N+](=O)[O-])c2)C(C(=O)OC2CN(C(c3ccccc3)c3ccccc3)C2)=C(N)N1 (centres undefined) [Azelnidipine] | 0.358

17 of these compounds, reformatted.

| Row | Compound | miR-132-3p level in NGN2-iNs |
| --- | --- | --- |
| 2 | CC(=O)N1CCN(CCOc2ccc(C3CCN(C4=Nn5c(nnc5C(F)(F)F)CC4)CC3)cc2)CC1 | 1.25 |
| 12 | Cc1ccccc1N1C(=O)c2cc(S(N)(=O)=O)c(Cl)cc2NC1C (centres undefined) [Metolazone] | -0.0376 |
| 14 | COc1ccc2[nH]c([S+]([O-])Cc3ncc(C)c(OC)c3C)nc2c1 (centres undefined) [Omeprazole] | 0.783 |
| 25 | COc1ccc(-c2cc(=O)c3c(O)cc(O[C@@H]4O[C@H](CO[C@@H]5O[C@@H](C)[C@H](O)[C@@H](O)[C@H]5O)[C@@H](O)[C@H](O)[C@H]4O)cc3o2)cc1O [Diosmin] | -0.712 |
| 27 | CCCCCCCN(CC)CCCC(O)c1ccc(NS(C)(=O)=O)cc1 (centres undefined) [Ibutilide Fumarate] | -0.319 |
| 28 | CC1(C)S[C@@H]2[C@H](NC(=O)[C@H](NC(=O)N3CCN(S(C)(=O)=O)C3=O)c3ccccc3)C(=O)N2[C@H]1C(=O)O [Mezlocillin Sodium] | -0.438 |
| 32 | C[C@@H](CN1CC(=O)NC(=O)C1)N1CC(=O)NC(=O)C1 [Dexrazoxane HCl (ICRF-187, ADR-529)] | 0.549 |
| 35 | CCC(=O)O[C@]1(C(=O)CCl)[C@@H](C)C[C@H]2[C@@H]3C[C@H](F)C4=CC(=O)C=C[C@]4(C)[C@@]3(F)[C@@H](O)C[C@@]21C [Halobetasol Propionate] | -0.901 |
| 37 | CCOC(=O)OC(C)OC1=C(C(=O)Nc2ccccn2)N(C)S(=O)(=O)c2ccccc21 (centres undefined) [Ampiroxicam] | -0.184 |
| 41 | O=S(=O)(O)CCS [Mesna] | -0.565 |
| 44 | COC(=O)[C@@H]1[C@H]2C[C@H]3c4[nH]c5ccccc5c4CCN3C[C@@H]2CC[C@@H]1O [Yohimbine HCl] | -0.796 |
| 51 | Cc1ccccc1-n1c(Cn2nc(-c3cccc(O)c3)c3c(N)ncnc32)nc2cccc(C)c2c1=O | -2.28 |
| 54 | CCS(=O)(=O)CCn1c([N+](=O)[O-])cnc1C [Tinidazole] | -1.04 |
| 61 | N=C(N)NC(=O)c1nc(Cl)c(N)nc1N [Amiloride HCl] | 0.591 |
| 69 | COc1ccc(-c2nc3cc(C4=NNC(=O)CC4C)ccc3[nH]2)cc1 (centres undefined) [Pimobendan] | 0.0478 |
| 70 | Cc1ccc(S(=O)(=O)n2c(N)nc3ccccc32)cc1 [Nodinitib-1] | 1.74 |
| 71 | NC(=O)c1ncn([C@@H]2O[C@H](CO)[C@@H](O)[C@H]2O)n1 [Ribavirin] | 1.78 |
